Measured values: the M2OR odorant receptor database
Only a part is listed here, and it is no random draw. The calls were merged from several studies; some rest on single wells.

The chains behind the UniProt entries cited, without tags or fusion partners. Where a name states a change or a piece, a line headed by the entry shows the natural chain unless it says otherwise.
UniProt Q9H209: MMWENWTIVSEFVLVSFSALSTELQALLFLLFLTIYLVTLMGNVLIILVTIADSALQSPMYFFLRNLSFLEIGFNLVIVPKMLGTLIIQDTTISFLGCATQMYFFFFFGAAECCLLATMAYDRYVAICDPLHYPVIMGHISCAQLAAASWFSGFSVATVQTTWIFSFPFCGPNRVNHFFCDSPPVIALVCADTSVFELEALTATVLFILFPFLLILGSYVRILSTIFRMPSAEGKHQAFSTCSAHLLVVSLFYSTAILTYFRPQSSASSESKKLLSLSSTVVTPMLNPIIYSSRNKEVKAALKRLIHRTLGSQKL

How the values were obtained:
Conditions in all cases: stereoisomer not certain
OR10A4 (Homo sapiens) = OR10A4 (Homo sapiens) (UniProt Q9H209)
Outline: (§1)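 Whether a receptor–molecule pair is responsive (active) rests on the original authors' judgment that its measured signal was statistically different from baseline. Pairs without that judgment are non-responsive (inactive). Sources used varied assay methods, commonly transient luciferase assays in mammalian cell lines.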

OR10A5 (Homo sapiens) = target: T1, OR10A5 (Homo sapiens) (UniProt Q9H207)
T1 sequence (whole entry): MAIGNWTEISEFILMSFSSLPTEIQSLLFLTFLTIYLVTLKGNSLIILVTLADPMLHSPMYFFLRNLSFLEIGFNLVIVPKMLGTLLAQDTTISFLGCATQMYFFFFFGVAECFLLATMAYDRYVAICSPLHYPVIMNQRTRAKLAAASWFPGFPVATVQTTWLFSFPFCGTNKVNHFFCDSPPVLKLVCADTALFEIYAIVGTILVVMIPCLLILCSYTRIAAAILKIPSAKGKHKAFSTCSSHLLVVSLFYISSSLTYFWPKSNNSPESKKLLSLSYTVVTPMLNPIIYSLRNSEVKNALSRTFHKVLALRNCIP
Outline: as §1

OR10A6 (Homo sapiens) = target: T2, OR10A6 (Homo sapiens) (UniProt Q8NH74)
T2 sequence (whole entry): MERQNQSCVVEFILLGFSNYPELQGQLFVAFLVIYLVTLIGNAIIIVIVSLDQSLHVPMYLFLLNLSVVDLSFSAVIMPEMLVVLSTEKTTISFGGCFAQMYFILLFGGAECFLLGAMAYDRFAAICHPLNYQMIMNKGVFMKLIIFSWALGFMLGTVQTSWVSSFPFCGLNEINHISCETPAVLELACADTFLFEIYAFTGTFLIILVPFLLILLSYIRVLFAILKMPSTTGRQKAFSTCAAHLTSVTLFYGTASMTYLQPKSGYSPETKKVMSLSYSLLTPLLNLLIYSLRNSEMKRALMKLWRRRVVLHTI
Outline: as §1

OR10A7 (Homo sapiens) = target: T3, OR10A7 (Homo sapiens) (UniProt Q8NGE5)
T3 sequence (whole entry): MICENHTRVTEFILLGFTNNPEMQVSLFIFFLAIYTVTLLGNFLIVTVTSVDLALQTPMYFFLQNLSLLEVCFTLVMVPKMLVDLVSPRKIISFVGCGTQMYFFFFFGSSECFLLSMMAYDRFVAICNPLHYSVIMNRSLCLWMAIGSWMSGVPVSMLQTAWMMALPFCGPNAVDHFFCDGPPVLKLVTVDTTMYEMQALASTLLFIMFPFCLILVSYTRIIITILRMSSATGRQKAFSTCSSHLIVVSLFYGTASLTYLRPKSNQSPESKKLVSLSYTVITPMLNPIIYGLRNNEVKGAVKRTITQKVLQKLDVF
Outline: as §1

OR10AG1 (Homo sapiens) = target: T4, OR10AG1 (Homo sapiens) (UniProt Q8NH19)
T4 sequence (whole entry): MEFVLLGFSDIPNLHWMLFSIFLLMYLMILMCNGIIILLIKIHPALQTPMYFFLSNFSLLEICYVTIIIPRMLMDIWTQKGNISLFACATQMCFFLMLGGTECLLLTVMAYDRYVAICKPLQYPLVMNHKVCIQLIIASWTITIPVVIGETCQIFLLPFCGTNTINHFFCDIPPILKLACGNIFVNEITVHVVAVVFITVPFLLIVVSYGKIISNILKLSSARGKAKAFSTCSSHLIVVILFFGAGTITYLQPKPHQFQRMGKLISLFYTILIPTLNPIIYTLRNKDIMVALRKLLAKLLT
Outline: as §1

OR10C1 (Homo sapiens) = target: T5, OR10C1 (Homo sapiens) (UniProt Q96KK4)
T5 sequence (whole entry): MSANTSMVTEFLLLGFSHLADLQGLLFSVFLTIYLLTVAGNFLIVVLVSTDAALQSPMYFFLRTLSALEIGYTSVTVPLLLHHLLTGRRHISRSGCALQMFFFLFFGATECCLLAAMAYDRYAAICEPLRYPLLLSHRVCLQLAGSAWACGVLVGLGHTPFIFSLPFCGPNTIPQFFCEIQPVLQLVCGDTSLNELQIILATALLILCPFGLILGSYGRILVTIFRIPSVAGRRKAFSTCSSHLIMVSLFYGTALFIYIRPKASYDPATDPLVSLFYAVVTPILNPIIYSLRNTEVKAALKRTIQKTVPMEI
Outline: as §1

OR10G3 (Homo sapiens) = target: T6, OR10G3 (Homo sapiens) (UniProt Q8NGC4)
T6 sequence (whole entry): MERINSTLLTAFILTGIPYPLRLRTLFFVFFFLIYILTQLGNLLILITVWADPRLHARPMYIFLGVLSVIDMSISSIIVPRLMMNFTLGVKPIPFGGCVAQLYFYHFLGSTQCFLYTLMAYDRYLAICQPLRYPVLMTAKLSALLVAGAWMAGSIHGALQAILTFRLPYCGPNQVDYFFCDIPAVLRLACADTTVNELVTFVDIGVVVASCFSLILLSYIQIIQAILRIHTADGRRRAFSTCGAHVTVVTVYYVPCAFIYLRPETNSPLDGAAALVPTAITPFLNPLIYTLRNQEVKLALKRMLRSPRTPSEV
Outline: as §1

OR10G6 (Homo sapiens) = target: T7, OR10G6 (Homo sapiens) (UniProt Q8NH81)
T7 sequence (whole entry): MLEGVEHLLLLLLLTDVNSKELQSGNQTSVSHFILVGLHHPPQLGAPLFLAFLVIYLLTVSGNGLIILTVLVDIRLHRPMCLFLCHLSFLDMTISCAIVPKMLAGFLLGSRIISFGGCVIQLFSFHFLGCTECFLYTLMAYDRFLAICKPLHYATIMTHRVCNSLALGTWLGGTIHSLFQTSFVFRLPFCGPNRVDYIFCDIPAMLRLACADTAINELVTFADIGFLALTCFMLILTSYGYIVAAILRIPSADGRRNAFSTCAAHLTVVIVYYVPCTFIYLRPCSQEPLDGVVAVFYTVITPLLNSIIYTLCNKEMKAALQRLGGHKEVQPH
Outline: as §1

OR10G7 (Homo sapiens) = target: T8, OR10G7 (Homo sapiens) (UniProt Q8NGN6)
T8 sequence (whole entry): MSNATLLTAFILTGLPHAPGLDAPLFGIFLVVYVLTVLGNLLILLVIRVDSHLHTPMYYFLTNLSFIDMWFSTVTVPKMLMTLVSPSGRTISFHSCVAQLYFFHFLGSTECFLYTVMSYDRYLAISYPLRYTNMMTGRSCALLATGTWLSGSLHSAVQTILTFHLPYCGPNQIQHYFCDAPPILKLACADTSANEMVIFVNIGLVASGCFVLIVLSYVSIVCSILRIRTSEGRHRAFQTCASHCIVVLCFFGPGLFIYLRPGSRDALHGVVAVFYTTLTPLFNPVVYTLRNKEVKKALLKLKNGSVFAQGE
Outline: as §1
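Further: active if original authors judged signal statistically different from baseline.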

Compound	odorant receptor agonist call (OR10A4 (Homo sapiens))	odorant receptor agonist call (OR10A5 (Homo sapiens))	odorant receptor agonist call (OR10A6 (Homo sapiens))	odorant receptor agonist call (OR10A7 (Homo sapiens))	odorant receptor agonist call (OR10AG1 (Homo sapiens))	odorant receptor agonist call (OR10C1 (Homo sapiens))	odorant receptor agonist call (OR10G3 (Homo sapiens))	odorant receptor agonist call (OR10G6 (Homo sapiens))	odorant receptor agonist call (OR10G7 (Homo sapiens))
CC12C=CCC1C1CCC3CC(=O)CCC3(C)C1CC2 (stereo not drawn)	inactive	inactive	inactive	inactive	inactive	inactive	inactive	inactive	inactive
COc1ccccc1O		inactive	inactive	inactive	inactive	active		inactive	active
CC(C)=CCCC(C)=CC=O		active	inactive	inactive	inactive	inactive		inactive	inactive
CCC1(O)C2(C)CCC(C2)C1(C)C (stereo not drawn)		inactive	inactive	inactive	inactive	inactive		inactive	active
CC12C=CCC1C1CCC3=CC(=O)CCC3(C)C1CC2 (stereo not drawn)		inactive	inactive	inactive	inactive	inactive		inactive	active
CCCCCC(C)=O			inactive	inactive	active	inactive		inactive	
O=CCc1ccccc1		active	inactive	inactive	inactive	inactive		inactive	active
CC(=O)c1ccccc1			inactive	inactive	inactive	inactive		inactive	
CCCCCCCCCCC=O		inactive	inactive	inactive	inactive	inactive		inactive	inactive
CC1=NC(C)SC1C (stereo not drawn)			inactive	inactive	active	inactive		active	
CC(=O)OC1CC2CCC1(C)C2(C)C (stereo not drawn)		inactive	inactive	inactive	inactive	inactive		inactive	active
CCCC(=O)O		inactive	inactive	inactive	inactive	inactive		inactive	inactive
O=C1CCCCCCCCCCCC(=O)OCCO1		inactive	inactive	inactive	inactive	inactive		inactive	inactive
CC(C)(C)c1ccc(CCC=O)cc1		active	inactive	inactive	inactive	inactive		inactive	inactive
COC(=O)c1ccccc1			inactive	inactive	inactive	inactive		inactive	
COC(=O)c1ccccc1O		inactive	inactive	inactive	inactive	inactive		inactive	active
CC(=O)C(C)=O		inactive	inactive	inactive	inactive	inactive		inactive	inactive
CCCCO		inactive	inactive	inactive	inactive	inactive		inactive	inactive
CCCCCCCCOC(C)=O		inactive	inactive	inactive	inactive	inactive		inactive	active
O=C1CCCCCCCCCCCCCCO1		inactive	inactive	inactive	inactive	inactive		inactive	inactive
O=C1CCCCC1			inactive	inactive	inactive	inactive		active	
C=CCc1ccc(OC)c(OC)c1		inactive	inactive	inactive	inactive	inactive		inactive	active
CC(C)CCC(=O)O		inactive	inactive	inactive	inactive	inactive		inactive	active
C=C(C)C1CCC2=CC(=O)CC(C)C2(C)C1 (stereo not drawn)		active	inactive			inactive			inactive
CC(C)(O)CCCC1=CCC(C=O)CC1 (stereo not drawn)		active							inactive
CCC=CCCO		inactive	inactive	inactive	inactive	inactive		inactive	active
CCCCCCCCCC=O		inactive	inactive	inactive	inactive	inactive		inactive	inactive

Pulled by structure from the entries so far (2):
Compound	odorant receptor agonist call (OR10A4 (Homo sapiens))	odorant receptor agonist call (OR10A5 (Homo sapiens))	odorant receptor agonist call (OR10A6 (Homo sapiens))	odorant receptor agonist call (OR10A7 (Homo sapiens))	odorant receptor agonist call (OR10AG1 (Homo sapiens))	odorant receptor agonist call (OR10C1 (Homo sapiens))	odorant receptor agonist call (OR10G3 (Homo sapiens))	odorant receptor agonist call (OR10G6 (Homo sapiens))	odorant receptor agonist call (OR10G7 (Homo sapiens))
COc1ccccc1O		inactive	inactive	inactive	inactive	active		inactive	active
CC(=O)C(C)=O		inactive	inactive	inactive	inactive	inactive		inactive	inactive
